# PubChem BioAssay AID1259254 | NCATS | 2017
# Screen: 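Finding genes that stop cells copying their DNA twice in one cycle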 (primary screen)
# System: human HCT116 colorectal cancer cells
# Reagent: single siRNA against human genes
# Time to read-out: 3 days
# Read-out: 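Imaged Hoechst DNA stain sorts each cell into a cycle phase by DNA amount; per plate, G2 fraction set to 0% for non-targeting and 100% for GMNN siRNA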
# Reading the numbers: G2 robust z-score and G2 cells, % of GMNN control: higher = more G2 cells, more excess DNA replication; raw share of cells in G2: higher = larger share of cells with G2 DNA content
# Rule for the call: 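An siRNA counts as active if its G2 robust z-score lies at least 5 MADs above the screen median; here such calls match roughly 38% of GMNN control or more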
# The whole screen tested about 59,000 reagents; below is an unselected part. Over the whole deposit, about 1,550 (2.6%) are marked active. 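G2 share is only a proxy for re-replication; each gene was hit by three separate siRNAs, and active genes were retested.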 Raw values vary from plate to plate and are shown uncorrected. Entries without a mark were called inactive. The numbers tell different reagents against one gene apart. Not given: the amount of reagent.
gene,reagent,G2 robust z-score,"G2 cells, % of GMNN control",raw share of cells in G2 (%)
H2BC3 (H2B clustered histone 3),1,-0.352,0.493,3.72
H2BC3 (H2B clustered histone 3),2,-0.59,-1.18,4.75
H2BC3 (H2B clustered histone 3),3,3.34,26.5,13.8
INTS3 (integrator complex subunit 3),1,0.43,5.99,7.19
INTS3 (integrator complex subunit 3),2,-0.88,-3.23,3.16
INTS3 (integrator complex subunit 3),3,0.279,4.93,4
CELF2-AS2 (CELF2 antisense RNA 2),1,4.2,32.5,18.3
CELF2-AS2 (CELF2 antisense RNA 2),2,1.09,10.6,7.68
CELF2-AS2 (CELF2 antisense RNA 2),3,2.36,19.6,11.3
SESN3 (sestrin 3),1,-0.837,-2.92,2.85
SESN3 (sestrin 3),2,4.04,31.4,12.6
SESN3 (sestrin 3),3,0.0348,3.21,4.19
GOLGB1 (golgin B1),1,-0.736,-2.21,2.87
GOLGB1 (golgin B1),2,-0.144,1.95,6
GOLGB1 (golgin B1),3,0.117,3.79,6.61
CSNK1G2-AS1 (CSNK1G2 antisense RNA 1),1,0.173,4.18,5.09
CSNK1G2-AS1 (CSNK1G2 antisense RNA 1),2,-0.612,-1.34,2.67
CSNK1G2-AS1 (CSNK1G2 antisense RNA 1),3,-0.302,0.843,3.46
LINC02913 (long independently transcribed non-coding RNA 2913),1,0.351,5.44,5.79
LINC02913 (long independently transcribed non-coding RNA 2913),2,0.916,9.41,7.25
LINC02913 (long independently transcribed non-coding RNA 2913),3,-0.384,0.263,4.9
FFAR2 (free fatty acid receptor 2),1,-0.676,-1.79,3.89
FFAR2 (free fatty acid receptor 2),2,1.84,15.9,8.14
FFAR2 (free fatty acid receptor 2),3,1.28,12,10.1
HIVEP1 (HIVEP zinc finger 1),1,0.311,5.15,7.65
HIVEP1 (HIVEP zinc finger 1),2,-1,-4.08,3.56
HIVEP1 (HIVEP zinc finger 1),3,0.242,4.67,5.91
S100A5 (S100 calcium binding protein A5),1,-0.836,-2.92,2.3
S100A5 (S100 calcium binding protein A5),2,0.325,5.26,5.02
S100A5 (S100 calcium binding protein A5),3,-0.693,-1.91,3.95

Taken from above:
Result for FFAR2 (free fatty acid receptor 2) #1 under “G2 robust z-score”: -0.676
Entry of HIVEP1 (HIVEP zinc finger 1) #2 in “G2 cells, % of GMNN control”: -4.08
Entry for CSNK1G2-AS1 (CSNK1G2 antisense RNA 1) #1 under “raw share of cells in G2 (%)”: 5.09

Additional reagents follow.
gene,reagent,G2 robust z-score,"G2 cells, % of GMNN control",raw share of cells in G2 (%)
TP53I3 (tumor protein p53 inducible protein 3),1,1.15,11.1,9.25
TP53I3 (tumor protein p53 inducible protein 3),2,-0.481,-0.417,5.05
TP53I3 (tumor protein p53 inducible protein 3),3,-0.918,-3.49,2.01
NES (nestin),1,-0.558,-0.956,3.53
NES (nestin),2,-1.1,-4.78,4.59
NES (nestin),3,1.49,13.5,11.6
TM6SF1 (transmembrane 6 superfamily member 1),1,0.175,4.2,5.11
TM6SF1 (transmembrane 6 superfamily member 1),2,-0.496,-0.525,4.05
TM6SF1 (transmembrane 6 superfamily member 1),3,-0.197,1.58,3.71
AP4S1 (adaptor related protein complex 4 subunit sigma 1),1,-0.94,-3.65,4.9
AP4S1 (adaptor related protein complex 4 subunit sigma 1),2,-0.167,1.79,4.76
AP4S1 (adaptor related protein complex 4 subunit sigma 1),3,1.49,13.5,8.47
LPAR1 (lysophosphatidic acid receptor 1),1,1.65,14.6,11
LPAR1 (lysophosphatidic acid receptor 1),2,-0.535,-0.798,4.24
LPAR1 (lysophosphatidic acid receptor 1),3,-0.0793,2.41,4.01
PIK3CA,1,1.64,14.5,10.4
PIK3CA,2,2.92,23.5,13.3
PIK3CA,3,1.74,15.2,9.39
NTRK1 (neurotrophic receptor tyrosine kinase 1),1,0.264,4.82,7.04
NTRK1 (neurotrophic receptor tyrosine kinase 1),2,-0.369,0.373,5.73
NTRK1 (neurotrophic receptor tyrosine kinase 1),3,-1.04,-4.33,2.5
TOR1AIP1 (torsin 1A interacting protein 1),1,1.75,15.3,10.2
TOR1AIP1 (torsin 1A interacting protein 1),2,-0.667,-1.73,3.19
TOR1AIP1 (torsin 1A interacting protein 1),3,1.05,10.4,6.92
PRR13 (proline rich 13),1,-0.665,-1.71,2.63
PRR13 (proline rich 13),2,1.76,15.3,9.1
PRR13 (proline rich 13),3,2.19,18.4,12
RNF215 (ring finger protein 215),1,-0.354,0.477,6.18
RNF215 (ring finger protein 215),2,8.38 (active),62,27.4
RNF215 (ring finger protein 215),3,-0.666,-1.72,3.98
QPRT (quinolinate phosphoribosyltransferase),1,-1.52,-7.73,3.27
QPRT (quinolinate phosphoribosyltransferase),2,-1.03,-4.28,2.72
QPRT (quinolinate phosphoribosyltransferase),3,7.18 (active),53.5,22.2
MROH2A (maestro heat like repeat family member 2A),1,0.0549,3.35,5.14
MROH2A (maestro heat like repeat family member 2A),2,-0.557,-0.949,2.84
MROH2A (maestro heat like repeat family member 2A),3,15.7 (active),114,50
PPIP5K1 (diphosphoinositol pentakisphosphate kinase 1),1,-1.15,-5.16,3
PPIP5K1 (diphosphoinositol pentakisphosphate kinase 1),2,-0.48,-0.409,3.77
PPIP5K1 (diphosphoinositol pentakisphosphate kinase 1),3,0.21,4.45,5.02
